According to paper PMC9576526:
No constants are given. Whether binding was seen depends on the method and setting. In cells and extracts the contact can be indirect. Some entries that bind do so weakly or less than the wild type. For part of these data: Sequences can lack the tags named with a protein.

Chains of the proteins cited; added tags and fusions are not shown.
UniProt Q60929: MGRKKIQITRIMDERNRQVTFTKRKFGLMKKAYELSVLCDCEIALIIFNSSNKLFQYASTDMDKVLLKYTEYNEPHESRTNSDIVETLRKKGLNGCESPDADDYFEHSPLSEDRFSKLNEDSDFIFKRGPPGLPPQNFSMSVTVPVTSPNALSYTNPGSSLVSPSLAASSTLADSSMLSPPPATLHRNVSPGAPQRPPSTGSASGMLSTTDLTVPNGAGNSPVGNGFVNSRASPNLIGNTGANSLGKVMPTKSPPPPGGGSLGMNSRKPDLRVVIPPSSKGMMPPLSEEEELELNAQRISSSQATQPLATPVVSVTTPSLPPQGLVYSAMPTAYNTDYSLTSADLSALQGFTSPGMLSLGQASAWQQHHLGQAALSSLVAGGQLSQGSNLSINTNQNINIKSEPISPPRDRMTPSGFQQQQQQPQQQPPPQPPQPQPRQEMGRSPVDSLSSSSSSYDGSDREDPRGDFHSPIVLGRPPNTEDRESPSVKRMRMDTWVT
UniProt O35253: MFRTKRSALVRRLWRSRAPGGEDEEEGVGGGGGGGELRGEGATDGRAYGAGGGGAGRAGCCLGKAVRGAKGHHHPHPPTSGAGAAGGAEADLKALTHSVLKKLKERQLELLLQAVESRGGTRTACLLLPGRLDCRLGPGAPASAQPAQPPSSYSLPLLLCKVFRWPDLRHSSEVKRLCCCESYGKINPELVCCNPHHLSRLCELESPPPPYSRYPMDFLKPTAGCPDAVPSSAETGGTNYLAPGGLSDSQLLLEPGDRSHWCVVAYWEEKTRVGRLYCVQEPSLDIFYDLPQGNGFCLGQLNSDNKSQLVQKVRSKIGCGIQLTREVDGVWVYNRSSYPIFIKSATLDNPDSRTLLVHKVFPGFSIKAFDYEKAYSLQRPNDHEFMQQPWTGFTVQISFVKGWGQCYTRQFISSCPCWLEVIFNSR

B1: NF-κB p65, in mouse embryonic fibroblasts, Q04207 1-549 (protein)
chain: MDDLFPLIFPSEPAQASGPYVEIIEQPKQRGMRFRYKCEGRSAGSIPGERSTDTTKTHPTIKINGYTGPGTVRISLVTKDPPHRPHPHELVGKDCRDGYYEADLCPDRSIHSFQNLGIQCVKKRDLEQAISQRIQTNNNPFHVPIEEQRGDYDLNAVRLCFQVTVRDPAGRPLLLTPVLSHPIFDNRAPNTAELKICRVNRNSGSCLGGDEIFLLCDKVQKEDIEVYFTGPGWEARGSFSQADVHRQVAIVFRTPPYADPSLQAPVRVSMQLRRPSDRELSEPMEFQYLPDTDDRHRIEEKRKRTYETFKSIMKKSPFNGPTEPRPPTRRIAVPTRNSTSVPKPAPQPYTFPASLSTINFDEFSPMLLPSGQISNQALALAPSSAPVLAQTMVPSSAMVPLAQPPAPAPVLTPGPPQSLSAPVPKSTQAGEGTLSEALLHLQFDADEDLGALLGNSTDPGVFTDLASVDNSEFQQLLNQGVSMSHSTAEPMLMEYPEAITRLVTGSQRPPDPAPTPLGTSGLPNGLSGDEDFSSIADMDFSALLSQISS

What was measured:
[1] = molecular target: HDAC5 (histone deacetylase 5), in mouse embryonic fibroblasts (UniProt Q9Z2V6); test: co-IP; lysates of MEFs in IP lysis buffer; Co-Immunoprecipitation Kit (ThermoFisher #26149); antibodies to HDAC5, Smad7, MEF2A, NF-κB p65; normal rabbit IgG as negative control; for Smad7 before or after TGF-β1 addition
[2] = molecular target: T1, HDAC5 (histone deacetylase 5), in mouse embryonic fibroblasts, Q9Z2V6; test: as above; conditions: remark: other sources report otherwise
T1 chain: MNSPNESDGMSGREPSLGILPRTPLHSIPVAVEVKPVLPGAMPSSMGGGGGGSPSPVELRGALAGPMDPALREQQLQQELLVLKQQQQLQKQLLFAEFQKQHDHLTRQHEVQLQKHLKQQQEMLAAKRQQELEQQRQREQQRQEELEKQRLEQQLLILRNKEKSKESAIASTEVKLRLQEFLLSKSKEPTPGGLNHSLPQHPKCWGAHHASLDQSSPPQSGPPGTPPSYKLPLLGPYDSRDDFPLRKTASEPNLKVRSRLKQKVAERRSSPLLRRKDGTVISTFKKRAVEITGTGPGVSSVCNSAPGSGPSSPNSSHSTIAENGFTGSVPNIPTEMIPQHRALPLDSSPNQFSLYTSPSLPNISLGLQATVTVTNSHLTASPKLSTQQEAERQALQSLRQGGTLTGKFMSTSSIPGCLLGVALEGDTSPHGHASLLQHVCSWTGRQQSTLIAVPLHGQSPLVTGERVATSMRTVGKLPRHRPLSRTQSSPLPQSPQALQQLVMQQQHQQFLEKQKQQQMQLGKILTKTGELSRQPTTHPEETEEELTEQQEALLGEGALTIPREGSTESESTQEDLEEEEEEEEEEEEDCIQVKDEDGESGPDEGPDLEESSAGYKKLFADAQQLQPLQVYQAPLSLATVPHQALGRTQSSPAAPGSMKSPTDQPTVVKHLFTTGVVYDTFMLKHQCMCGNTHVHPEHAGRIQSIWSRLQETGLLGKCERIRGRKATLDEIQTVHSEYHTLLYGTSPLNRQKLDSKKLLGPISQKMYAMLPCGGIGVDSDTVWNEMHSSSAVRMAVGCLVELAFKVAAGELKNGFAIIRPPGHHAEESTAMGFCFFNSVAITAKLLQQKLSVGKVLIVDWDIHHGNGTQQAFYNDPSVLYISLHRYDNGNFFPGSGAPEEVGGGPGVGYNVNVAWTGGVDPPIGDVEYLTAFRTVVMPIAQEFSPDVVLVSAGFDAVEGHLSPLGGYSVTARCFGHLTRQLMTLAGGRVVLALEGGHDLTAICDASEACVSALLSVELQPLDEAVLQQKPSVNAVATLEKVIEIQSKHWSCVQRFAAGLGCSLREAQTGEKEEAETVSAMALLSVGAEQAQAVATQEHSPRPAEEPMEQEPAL

Molecule | binding [1] | binding [2]
MEF2A (myocyte enhancer factor 2A), in mouse embryonic fibroblasts (from UniProt Q60929 1-498) | binds | 
Smad7, in mouse embryonic fibroblasts (from UniProt O35253 1-426) | no binding | 
B1 |  | no binding
